Further values from the same series stand in other lists.
Test system: RNA isoforms in PNN 1-46 SMA type I patient-derived fibroblasts
Assay: RNA Abundance Modulation (RNA isoform abundance, iFPM, HiSeq RNA sequencing)
Assay type: cell-based, human
Conditions: 3 μM
Description: Cells from a cell line of interest are cultured in conditions sufficient to yield the number of cells capable of generating enough RNA for subsequent sequencing steps. Cells from the tested cell line are contacted with a compound described herein.
To culture said cells, they are seeded, at appropriate concentrations in a volume of media in a cell culture container and incubated for 4, 5, 6, 7, 8, 9, 10, or more hours. A concentrated solution of compound in a vehicle (e.g., DMSO) is then added in sufficient volume to result in the intended final concentration of the compound, for example 100 nM, 500 nM, 1 μM, 5 μM, 10 μM, 15 μM, 20 μM, or more. The cells may also be treated with vehicle alone, as a control. A number of replicates of each concentration or control may be made (e.g., 2 replicates). The cells are then incubated at a constant temperature appropriate for cell culture of the particular cell line (e.g., 37° C.) for 6, 12, 18, 24, 48, or more hours. After incubation, the growth medium is removed and the cells are washed with the appropriate buffer (e.g., PBS). Cells are then removed from adherence to the cell culture container by treatment with a solution containing trypsin, and the trypsin subsequently quenched with the appropriate volume of buffer (e.g., DMEM-FBS). The cells are then pelleted with gentle centrifugation (e.g., ≤90×g centrifugal force) and resuspended in a buffer to lyse the cells for extraction of RNA. The cell lysates may then be frozen (e.g., at −80° C.) or, alternately, may immediately be used in a procedure to purify the RNA (e.g. by use of the RNEASY PLUS® minikit). The RNA from cell lysates is eluted in the appropriate volume of buffer (e.g., RNEASE-FREE H2O®). The resulting purified RNA may then be sequenced (e.g., using RNASeq) or analyzed using a human exon array (e.g., by GENECHIP® human exon array) to determine changes in the RNA levels in those cells treated with compound compared to those cells treated only with DMSO. The purified RNA may also be quantified by other methods known in the art.
Using the RNA data obtained from sequencing, exon array, or other methods, a statistical analysis can reveal changes in the RNA levels of compound-treated compared with control. For example, t-test p-values may be calculated for the data obtained through sequencing and exon array methods in order to compare compound-treated cells to those treated with the DMSO control. […] Analysis of the sequencing and exon array data may then also yield predictions about the cause of the aberrant amount of an RNA transcript in the cells (e.g., perturbation of RNA splicing, RNA transcription, or RNA stability). These predictions may be further confirmed by methods known in the art. For example, RT-PCR and RT-qPCR may be used to confirm the change in amount of RNA transcripts for one or more particular transcripts of interest.
Following the methods described above in Example 1, PNN 1-46 SMA type I patient-derived fibroblasts were treated with 300 nM or 3 μM Compounds 774 and 808 in 0.5% DMSO.
700,000 cells were seeded in 10 mL of medium (DMEM plus 10% FBS) in a T-75 flask. Cells were allowed to attach for at least 4 hrs, after which 50 μL of a 200× compound solution (100% DMSO) was added to each well, and the plate was incubated at 37° C. for 24 hrs.
At the end of the incubation period, the supernatant was removed and the cells where washed with PBS. TrypLE (Invitrogen) express solution was added (e.g. 1.5 mL per one T75 flask). The flasks were incubated for 3 to 5 min at 37° C. The trypsin was then quenched, e.g., by adding 10 mL DMEM-FBS.
Next, the cells were pelleted using gentle centrifugation without exceeding 90×g centrifugal force. The supernatant was removed and the cell pellet was re-suspended in 600 μL RLT buffer (the RLT buffer was supplemented with beta-mercaptoethanol according to the RNeasy protocol manual) by pipetting up and down until the pellet was completely dissolved […]

## CCc1nc(C)cn2nc(-c3cc(=O)n4cc(C5CCN(C)CC5)cc(C)c4n3)cc12 [Compound 774]
FHOD3 AB051482
  L2FC (x + 1): −1.508
  L2abs (Cpd-DMSO): 7.51
  abs (Cpd-DMSO): 182 iFPM
  amp FC (x + 1): 2.84
  ave Cpd: 98 iFPM
FHOD3 AB084087
  FC (x + 1): 0.0098
  L2FC (x + 1): −6.674
  L2abs (Cpd-DMSO): 6.66
  abs (Cpd-DMSO): 101 iFPM
  amp FC (x + 1): 102.10
  ave Cpd: 0 iFPM
FHOD3 AK128053
  FC (x + 1): 0.8974
  L2FC (x + 1): −0.156
  L2abs (Cpd-DMSO): 0.72
  abs (Cpd-DMSO): 2 iFPM
  amp FC (x + 1): 1.11
  ave Cpd: 13 iFPM
FHOD3 AK308859
  FC (x + 1): 0.3689
  L2FC (x + 1): −1.439
  L2abs (Cpd-DMSO): 3.68
  abs (Cpd-DMSO): 13 iFPM
  amp FC (x + 1): 2.71
  ave Cpd: 6 iFPM
FHOD3 BC058897
  FC (x + 1): 0.4349
  L2FC (x + 1): −1.201
  L2abs (Cpd-DMSO): 5.22
  abs (Cpd-DMSO): 37 iFPM
  amp FC (x + 1): 2.30
  ave Cpd: 28 iFPM
FHOD3 HM191478
  FC (x + 1): 0.3167
  L2FC (x + 1): −1.659
  L2abs (Cpd-DMSO): 3.38
  abs (Cpd-DMSO): 10 iFPM
  amp FC (x + 1): 3.16
  ave Cpd: 4 iFPM
FHOD3 NM_025135
  FC (x + 1): 0.5522
  L2FC (x + 1): −0.857
  L2abs (Cpd-DMSO): 7.67
  abs (Cpd-DMSO): 203 iFPM
  amp FC (x + 1): 1.81
  ave Cpd: 250 iFPM
FLII AK295814
  FC (x + 1): 2.3273
  L2FC (x + 1): 1.219
  L2abs (Cpd-DMSO): 2.99
  abs (Cpd-DMSO): 8 iFPM
  amp FC (x + 1): 2.33
  ave Cpd: 13 iFPM
FLII BC021885
  FC (x + 1): 1.1053
  L2FC (x + 1): 0.144
  L2abs (Cpd-DMSO): 8.51
  abs (Cpd-DMSO): 364 iFPM
  amp FC (x + 1): 1.11
  ave Cpd: 3822 iFPM
FLII NM_002018
  FC (x + 1): 0.9666
  L2FC (x + 1): −0.049
  L2abs (Cpd-DMSO): 6.97
  abs (Cpd-DMSO): 125 iFPM
  amp FC (x + 1): 1.03
  ave Cpd: 3619 iFPM
FLII NM_001256264
  FC (x + 1): 0.0064
  L2FC (x + 1): −7.291
  L2abs (Cpd-DMSO): 7.28
  abs (Cpd-DMSO): 156 iFPM
  amp FC (x + 1): 156.56
  ave Cpd: 0 iFPM
FLII NM_001256265
  FC (x + 1): 0.0658
  L2FC (x + 1): −3.925
  L2abs (Cpd-DMSO): 3.83
  abs (Cpd-DMSO): 14 iFPM
  amp FC (x + 1): 15.19
  ave Cpd: 0 iFPM
FLNB AF353666
  FC (x + 1): 0.7328
  L2FC (x + 1): −0.448
  L2abs (Cpd-DMSO): −0.73
  abs (Cpd-DMSO): 1 iFPM
  amp FC (x + 1): 1.36
  ave Cpd: 1 iFPM
FLNB NM_001457
  FC (x + 1): 0.6887
  L2FC (x + 1): −0.538
  L2abs (Cpd-DMSO): 11.74
  abs (Cpd-DMSO): 3431 iFPM
  amp FC (x + 1): 1.45
  ave Cpd: 7590 iFPM
FLNB NM_001164317
  FC (x + 1): 0.6357
  L2FC (x + 1): −0.654
  L2abs (Cpd-DMSO): 7.96
  abs (Cpd-DMSO): 248 iFPM
  amp FC (x + 1): 1.57
  ave Cpd: 433 iFPM
FLNB NM_001164318
  FC (x + 1): 0.3591
  L2FC (x + 1): −1.478
  L2abs (Cpd-DMSO): 9.58
  abs (Cpd-DMSO): 768 iFPM
  amp FC (x + 1): 2.78
  ave Cpd: 429 iFPM
FLNB NM_001164319
  FC (x + 1): 0.8989
  L2FC (x + 1): −0.154
  L2abs (Cpd-DMSO): 8.47
  abs (Cpd-DMSO): 354 iFPM
  amp FC (x + 1): 1.11
  ave Cpd: 3149 iFPM
FNBP1 AK000975
  FC (x + 1): 0.3901
  L2FC (x + 1): −1.358
  L2abs (Cpd-DMSO): 7.40
  abs (Cpd-DMSO): 169 iFPM
  amp FC (x + 1): 2.56
  ave Cpd: 107 iFPM
FNBP1 AK001616
  FC (x + 1): 1.6171
  L2FC (x + 1): 0.693
  L2abs (Cpd-DMSO): 6.61
  abs (Cpd-DMSO): 98 iFPM
  amp FC (x + 1): 1.62
  ave Cpd: 256 iFPM
FNBP1 AK023681
  FC (x + 1): 2.6266
  L2FC (x + 1): 1.393
  L2abs (Cpd-DMSO): 3.14
  abs (Cpd-DMSO): 9 iFPM
  amp FC (x + 1): 2.63
  ave Cpd: 13 iFPM
FNBP1 BC143513
  FC (x + 1): 0.6734
  L2FC (x + 1): −0.571
  L2abs (Cpd-DMSO): 8.65
  abs (Cpd-DMSO): 401 iFPM

— patent publication US10688099B2, “Methods for modulating the amount of RNA transcripts” (PTC Therapeutics, Inc., priority 2013, dated 2020)
